Test results as given in PubChem BioAssay AID540276 (National Center for Advancing Translational Sciences (NCATS), 2011).
In all, about 300,000 compounds went through this assay and about 5,400 (1.8%) were called active. The shares of active, inactive and inconclusive entries below differ from those in the screen. Calls follow the shape of the full dose curve; tested in HEK293 cells. A potency beside an inconclusive call is a rough fit, not a confirmed value.

Test: qHTS for inhibitors of binding or entry into cells for Marburg Virus
Conditions: Marburg virus pseudotyped entry inhibition, cell reporter; series mostly up to 37.8 µM
Potency is read from the fitted curve at half-maximal effect.

Row | Compound | Potency
1 | CCOc1cc(S(=O)(=O)NCc2ccccn2)ccc1Cl | inactive
2 | COc1ccc(NC(=S)NCCN2CCC(C)CC2)cc1Cl | inconclusive: 22.4 µM [inhibitor, single point]
3 | Cc1nn(-c2c(Cl)cc(Cl)cc2Cl)c(=O)c2ccccc12 | inconclusive: 11.2 µM [inhibitor, partial curve, poor fit]
4 | CCOC(=O)/C(=N/Nc1ccccc1)N1CCCc2ccccc21 | inconclusive: 23.1 µM [inhibitor, single point]
5 | CCCN(CC(=O)Nc1ccccc1C)C(=O)CCCc1c[nH]c2ccccc12 | inconclusive: 0.631 µM [inhibitor, full curve]
6 | CC1CC(OC(=O)C2CCN(S(=O)(=O)c3ccc(F)cc3)CC2)C(=O)O1 (centres undefined) | inactive
7 | O=C(Nc1ccc(Cl)c(Cl)c1)N1CCCCCC1 | inconclusive: 0.891 µM [activator, partial curve, poor fit]
8 | COc1cc(/C=C(/C#N)C(=O)NCCc2c[nH]c3ccccc23)ccc1OCc1ccccc1F | inconclusive: 2.91 µM [inhibitor, full curve]
9 | CC12CCC(=O)N1C(C(=O)OCC(=O)Nc1cc(S(=O)(=O)N3CCCCC3)ccc1Cl)CS2 (centres undefined) | inconclusive: 5.62 µM [activator, single point]
10 | Cc1cc(O)c(C(C)C)cc1NC(=S)Nc1cc(C(C)C)c(O)cc1C | inconclusive: 35.5 µM [inhibitor, single point]
11 | COc1ccc(OCc2ccc(C(=O)N3CCOCC3)cc2)cc1 | inactive
12 | CC1(c2ccccc2)NC(=O)N(CC(=O)Nc2cc(Cl)ccc2N2CCOCC2)C1=O (centres undefined) | inactive
13 | O=C(NCCc1ccccc1)C1CCCN1S(=O)(=O)c1ccc(Cl)cc1 (centres undefined) | inconclusive: 6.31 µM [inhibitor, single point]
14 | CC(=O)Nc1cc2c(=O)n(Cc3ccccc3)c(C)nc2cc1N1CCOCC1 | inactive
15 | O=C(CN1CCC(Cc2ccccc2)CC1)NC(=O)NC1CCCCC1 | inactive
16 | O=C(N/N=C/c1ccccn1)NC12CC3CC(CC(C3)C1)C2 | inconclusive: 11.2 µM [activator, partial curve, poor fit]
17 | CN1CCN(C(=O)c2cc3nc(-c4ccc(Cl)cc4)cc(C(F)(F)F)n3n2)CC1 | inconclusive: 0.631 µM [activator, single point]
18 | C=CCn1c(O)c(N=NC(=S)Nc2ccc(OC)c(Cl)c2)c2ccccc21 | inconclusive: 1.46 µM [inhibitor, full curve]
19 | CCN(CC(=O)Nc1c(F)cccc1F)C(=O)c1ccc(N2CCOCC2)c([N+](=O)[O-])c1 | inconclusive: 5.62 µM [inhibitor, partial curve, poor fit]
20 | Cc1cc(C)n(-c2nc(Nc3ccccc3C(F)(F)F)nc(-n3nc(C)cc3C)n2)n1 | active: 10 µM
21 | CC(C)Cn1cnc2c(SCc3ccccc3F)nc(N)nc21 | inconclusive: 25.1 µM [inhibitor, single point]
22 | Cc1ccc(NC(=S)N(CCC(C)C)C(C)c2ccncc2)c(Cl)c1 (centres undefined) | inconclusive: 15.8 µM [inhibitor, single point]
23 | COc1ccccc1C(=O)Nc1ccccc1OCc1cc(=O)n2c(C)csc2n1 | inactive

Row | Compound | Potency
24 | O=C(c1ccc(Cl)cc1)c1cnc(Nc2ccccc2)s1 | inconclusive: 0.82 µM [activator, partial curve, poor fit]
25 | COc1cccc(-c2cc(C(F)(F)F)nc(-n3cncn3)n2)c1 | inconclusive: 20.6 µM [inhibitor, partial curve, poor fit]
26 | CN(Cc1ccc(F)cc1)C(=O)c1cccc(S(=O)(=O)N2CCN(c3ccc(F)cc3)CC2)c1 | inconclusive: 11.2 µM [inhibitor, partial curve, poor fit]
27 | O=C(O)COn1c(-c2ccccc2)nc2ccc(Cl)cc21 | inconclusive: 6.31 µM [inhibitor, partial curve, poor fit]
28 | CC1=NN(c2ccccc2)C(=O)/C1=C\C=C1/N(C)c2ccccc2C1(C)C | active: 11.2 µM
29 | CCOC(=O)c1sc(NC(=O)C(OC(C)=O)c2ccccc2)nc1C (centres undefined) | inconclusive: 31.6 µM [activator, single point]
30 | CCOC(=O)[C@@H]1CSCCS(=O)(=O)N1Cc1ccc(C(F)(F)F)cc1 | inconclusive: 0.0011 µM [activator, full curve, poor fit]
31 | COc1ccccc1C(O)(c1ccccc1)c1ccccc1OC | inconclusive: 14.1 µM [inhibitor, single point]
32 | Cc1ccc(NC(=O)CSc2ccccc2)cc1S(=O)(=O)N1CCCCC1 | inconclusive: 35.5 µM [inhibitor, single point]
33 | CCCc1cc(=O)[nH]c(SCC(=O)N2CCN(c3ccccc3)CC2)n1 | inconclusive: 6.31 µM [activator, single point]
34 | COc1cccc(C(=O)Nc2ccc(S(=O)(=O)NCc3ccco3)cc2)c1 | inactive
35 | CC(C)NC(=O)c1ccc(-c2ccccc2C(F)(F)F)o1 | inactive
36 | COc1ccc(CNC(=O)CSCc2nc(-c3ccccc3C)oc2C)cc1 | inactive
37 | CCOC(=O)C1(Cc2ccccc2)CCCN(C(=O)c2cnn(CC)c2)C1 (centres undefined) | inconclusive: 7.08 µM [activator, full curve, poor fit]
38 | COc1ccc(Nc2ccc3c(c2)=NC2(CCCCC2)[N+]=3[O-])cc1 | inconclusive: 35.5 µM [inhibitor, single point]
39 | CCNC(=O)[C@H]1O[C@H](n2cnc3c(N)nc(NCCc4ccc(CCC(=O)O)cc4)nc32)[C@@H](O)[C@@H]1O | inconclusive: 29.1 µM [inhibitor, single point]
40 | CC12C(=O)N(c3nccs3)C(=O)C1(C)C1CCC2O1 (centres undefined) | inactive
41 | Cc1nc([N+](=O)[O-])cn1CCC#N | inactive
42 | CCCn1nnc2ccccc2c1=O | inactive
43 | Cc1cccc(Cl)c1NC(=S)N1CCN(c2ccc([N+](=O)[O-])cn2)CC1 | inconclusive: 1.26 µM [activator, partial curve, poor fit]
44 | O=C(CSc1nnc(-c2ccncc2)n1-c1ccccc1Cl)Nc1ccc(C(=O)O)cc1 | inconclusive: 2.82 µM [activator, single point]
45 | COc1ccc(/C=C2\Sc3ccc(C(=O)NCC4CCCO4)cc3N(C)C2=O)cc1 (centres undefined) | inconclusive: 35.5 µM [inhibitor, single point]
46 | COC(=O)CC1(C(=O)OC)Oc2ccc(Br)cc2C(=O)N1c1cccc(Cl)c1Cl (centres undefined) | inconclusive: 3.16 µM [inhibitor, full curve]

18 compounds from above, arranged by length of the SMILES, ascending.
Row | Compound | Potency
42 | CCCn1nnc2ccccc2c1=O | inactive
41 | Cc1nc([N+](=O)[O-])cn1CCC#N | inactive
2 | COc1ccc(NC(=S)NCCN2CCC(C)CC2)cc1Cl | inconclusive: 22.4 µM [inhibitor, single point]
24 | O=C(c1ccc(Cl)cc1)c1cnc(Nc2ccccc2)s1 | inconclusive: 0.82 µM [activator, partial curve, poor fit]
27 | O=C(O)COn1c(-c2ccccc2)nc2ccc(Cl)cc21 | inconclusive: 6.31 µM [inhibitor, partial curve, poor fit]
35 | CC(C)NC(=O)c1ccc(-c2ccccc2C(F)(F)F)o1 | inactive
15 | O=C(CN1CCC(Cc2ccccc2)CC1)NC(=O)NC1CCCCC1 | inactive
36 | COc1ccc(CNC(=O)CSCc2nc(-c3ccccc3C)oc2C)cc1 | inactive
32 | Cc1ccc(NC(=O)CSc2ccccc2)cc1S(=O)(=O)N1CCCCC1 | inconclusive: 35.5 µM [inhibitor, single point]
10 | Cc1cc(O)c(C(C)C)cc1NC(=S)Nc1cc(C(C)C)c(O)cc1C | inconclusive: 35.5 µM [inhibitor, single point]
23 | COc1ccccc1C(=O)Nc1ccccc1OCc1cc(=O)n2c(C)csc2n1 | inactive
30 | CCOC(=O)[C@@H]1CSCCS(=O)(=O)N1Cc1ccc(C(F)(F)F)cc1 | inconclusive: 0.0011 µM [activator, full curve, poor fit]
6 | CC1CC(OC(=O)C2CCN(S(=O)(=O)c3ccc(F)cc3)CC2)C(=O)O1 (centres undefined) | inactive
45 | COc1ccc(/C=C2\Sc3ccc(C(=O)NCC4CCCO4)cc3N(C)C2=O)cc1 (centres undefined) | inconclusive: 35.5 µM [inhibitor, single point]
12 | CC1(c2ccccc2)NC(=O)N(CC(=O)Nc2cc(Cl)ccc2N2CCOCC2)C1=O (centres undefined) | inactive
20 | Cc1cc(C)n(-c2nc(Nc3ccccc3C(F)(F)F)nc(-n3nc(C)cc3C)n2)n1 | active: 10 µM
8 | COc1cc(/C=C(/C#N)C(=O)NCCc2c[nH]c3ccccc23)ccc1OCc1ccccc1F | inconclusive: 2.91 µM [inhibitor, full curve]
26 | CN(Cc1ccc(F)cc1)C(=O)c1cccc(S(=O)(=O)N2CCN(c3ccc(F)cc3)CC2)c1 | inconclusive: 11.2 µM [inhibitor, partial curve, poor fit]

2 compounds drawn at random from those above, as already listed:
Row | Compound | Potency
28 | CC1=NN(c2ccccc2)C(=O)/C1=C\C=C1/N(C)c2ccccc2C1(C)C | active: 11.2 µM
26 | CN(Cc1ccc(F)cc1)C(=O)c1cccc(S(=O)(=O)N2CCN(c3ccc(F)cc3)CC2)c1 | inconclusive: 11.2 µM [inhibitor, partial curve, poor fit]

(cont.)

Row | Compound | Potency
47 | COC(=O)Nc1ccc(S(=O)(=O)NCCCCCC(=O)O)cc1 | inactive
48 | COC(=O)c1c(-c2ccccc2)csc1NC(=O)c1c(-c2ccccc2)noc1C | active: 1 µM
49 | COc1ccc(/C=N/n2c(N)nc3ccccc32)cc1OC | inactive
50 | O=c1cc(CSc2nnc3ccccn23)c2c(ccc3ccccc32)o1 | inconclusive: 1.26 µM [activator, partial curve, poor fit]
51 | CCCCNC(=O)N(O)C1N(/N=C/c2ccccc2OC)C(=S)SC1(C)C (centres undefined) | inconclusive: 35.5 µM [inhibitor, single point]
52 | COc1ccc(CCNC(=O)CCc2cn(C)c3ccccc23)c(OC)c1OC | inconclusive: 10 µM [inhibitor, partial curve, poor fit]
53 | CC(C)(C)NC(=O)CN(C(=O)c1ccc(CN2CCOCC2)o1)c1ccc2c(c1)OCCO2 | inactive
54 | CN(CCC1CCOCC1)C(=O)C1CCC(=O)N(CCc2ccccc2)C1 (centres undefined) | inactive
55 | Cc1ccc(NC(=O)C(Cc2c[nH]c3ccccc23)NC(=O)OC(C)(C)C)c(C)c1 (centres undefined) | inconclusive: 35.5 µM [inhibitor, single point]
56 | COc1ccc(CCNC(=O)Cc2cc(OC)c(OC)cc2Br)cc1OC | inactive
57 | CCCc1cc(=O)[nH]c(SCC(=O)NC(=O)OCC)n1 | inactive
58 | O=C(Cc1coc2ccc3ccccc3c12)NCc1ccccc1 | inconclusive: 25.9 µM [inhibitor, single point]
59 | COC(=O)CSc1nc2ccc(C)cc2[nH]1 | inactive
60 | Cc1ccnc(NC(=O)c2cccc3ccccc23)c1 | inconclusive: 5.62 µM [inhibitor, partial curve]
61 | Cc1cc(Cl)ccc1OCC(=O)NC1CCCC1 | inconclusive: 1.46 µM [inhibitor, full curve]
62 | CCOc1ccc2nc(SCC(=O)NCC3CCCO3)c(C#N)cc2c1 (centres undefined) | inconclusive: 3.16 µM [inhibitor, single point]
63 | COc1ccc(C(=O)c2c[nH]c(C(=O)NCc3ccco3)c2)cc1 | inconclusive: 6.31 µM [activator, single point]
64 | Cc1cccc(Oc2nc(-c3ccccc3)cc(C)c2S(C)(=O)=O)c1C | inconclusive: 17.8 µM [inhibitor, single point]
65 | CN(C(=O)CSc1nnc(-c2ccccc2)o1)c1c(N)n(Cc2ccccc2)c(=O)[nH]c1=O | inactive
66 | Cc1ccc(C(=O)Nc2ccc(S(=O)(=O)N3CCN(C)CC3)cc2)o1 | inconclusive: 18.3 µM [activator, partial curve, poor fit]
67 | Cc1ccc(C)c(N(C)C(=O)CCS(=O)(=O)c2cccc3nonc23)c1 | inactive
68 | COc1ccc(NC(=O)Cn2cc(S(=O)(=O)N3CCN(c4ccccc4F)CC3)c3ccccc3c2=O)cc1Cl | inconclusive: 35.5 µM [inhibitor, partial curve, poor fit]
69 | Cc1cc(C(=O)NCC(=O)OCC(=O)Nc2ccc(OC(F)F)cc2)ccc1[N+](=O)[O-] | inconclusive: 4.47 µM [activator, full curve, poor fit]
